Measured values reported in patent US20160046582A1 (Teva Pharmaceutical Industries Ltd., priority 2014, published 2016).

Test: HPLC NEA and non-polar impurities (3-HLAQ, SPIRO-LAQ) in drug substance, Example 20
Settings: laquinimod sodium drug substance; for NEA and Non-Polar Imp.: Any Other Impurity / NEA and Non-Polar Imp.: NEA: spec NMT 0.10; for NEA and Non-Polar Imp.: Total: spec NMT 0.50

| SMILES | NEA and Non-Polar Imp.: Any Other Impurity | NEA and Non-Polar Imp.: NEA | NEA and Non-Polar Imp.: Total |
| --- | --- | --- | --- |
| CCN(C(=O)c1c([O-])c2c(Cl)cccc2n(C)c1=O)c1ccccc1.[Na+] [Batch 7] | LT 0.02% | LT 0.02% | LT 0.06% |
| CCN(C(=O)c1c([O-])c2c(Cl)cccc2n(C)c1=O)c1ccccc1.[Na+] [Batch 11] | LT 0.02% | LT 0.02% | LT 0.02% |
| CCN(C(=O)c1c([O-])c2c(Cl)cccc2n(C)c1=O)c1ccccc1.[Na+] [Batch 12] | LT 0.02% | LT 0.02% | LT 0.02% |
| CCN(C(=O)c1c([O-])c2c(Cl)cccc2n(C)c1=O)c1ccccc1.[Na+] [Batch 10] | LT 0.02% | LT 0.02% | LT 0.02% |
| CCN(C(=O)c1c([O-])c2c(Cl)cccc2n(C)c1=O)c1ccccc1.[Na+] [Batch 5] | LT 0.02% | LT 0.02% | LT 0.06% |
| CCN(C(=O)c1c([O-])c2c(Cl)cccc2n(C)c1=O)c1ccccc1.[Na+] [Batch 9] | LT 0.02% | LT 0.02% | LT 0.02% |
| CCN(C(=O)c1c([O-])c2c(Cl)cccc2n(C)c1=O)c1ccccc1.[Na+] [Batch 6] | LT 0.02% | LT 0.02% | LT 0.06% |
| CCN(C(=O)c1c([O-])c2c(Cl)cccc2n(C)c1=O)c1ccccc1.[Na+] [Batch 4] | LT 0.02% | LT 0.02% | LT 0.05% |
| CCN(C(=O)c1c([O-])c2c(Cl)cccc2n(C)c1=O)c1ccccc1.[Na+] [Batch 8] | LT 0.02% | LT 0.02% | LT 0.06% |
| CCN(C(=O)c1c([O-])c2c(Cl)cccc2n(C)c1=O)c1ccccc1.[Na+] [Batch 3] | LT 0.02% | LT 0.02% | LT 0.05% |
| CCN(C(=O)c1c([O-])c2c(Cl)cccc2n(C)c1=O)c1ccccc1.[Na+] [Batch 2] | LT 0.05% | LT 0.05% | LT 0.05% |
